Sequences of proteins named here, by UniProt entry; tags and fusion partners are left off. A change or cut given only in a name is not applied to a line headed by its entry. Residues count along the entry.
UniProt P06276, residues 29-602: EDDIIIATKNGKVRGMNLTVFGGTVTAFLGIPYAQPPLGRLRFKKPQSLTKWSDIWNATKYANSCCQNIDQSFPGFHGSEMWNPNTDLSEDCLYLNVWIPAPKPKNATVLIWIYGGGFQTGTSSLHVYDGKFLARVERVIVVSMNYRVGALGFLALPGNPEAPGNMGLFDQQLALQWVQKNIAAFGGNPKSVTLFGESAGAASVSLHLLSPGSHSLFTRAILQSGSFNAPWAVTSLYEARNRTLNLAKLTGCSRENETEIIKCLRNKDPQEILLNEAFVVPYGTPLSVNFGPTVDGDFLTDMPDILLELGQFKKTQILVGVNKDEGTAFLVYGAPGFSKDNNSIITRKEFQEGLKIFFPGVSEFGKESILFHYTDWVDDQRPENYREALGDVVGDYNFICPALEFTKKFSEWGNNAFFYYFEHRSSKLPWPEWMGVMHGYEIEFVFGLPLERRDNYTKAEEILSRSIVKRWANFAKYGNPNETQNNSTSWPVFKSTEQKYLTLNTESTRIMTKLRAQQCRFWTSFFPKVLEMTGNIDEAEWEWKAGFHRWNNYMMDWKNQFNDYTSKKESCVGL
UniProt P02647: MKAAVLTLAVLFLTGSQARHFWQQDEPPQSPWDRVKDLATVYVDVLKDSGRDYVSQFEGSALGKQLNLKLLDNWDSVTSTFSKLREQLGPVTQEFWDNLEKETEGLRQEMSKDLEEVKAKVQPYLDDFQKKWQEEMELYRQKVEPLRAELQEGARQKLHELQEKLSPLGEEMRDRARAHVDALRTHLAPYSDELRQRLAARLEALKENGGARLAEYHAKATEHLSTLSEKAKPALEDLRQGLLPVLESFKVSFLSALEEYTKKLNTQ

According to PMC8508650:

Molecular target: butyrylcholinesterase (human (endogenous in serum)) (UniProt P06276)
Experiment: affinity purification with mass spectrometry; SEC fractions 6, 8 and 10 of human serum loaded on 50 µL Hupresin AC Sepharose (binds BChE); washed only 2 times with 200 µL 100 mM NaCl, 20 mM Tris-HCl pH 7.4; eluted with 0.5 M trimethylammonium chloride; eluate identified by LC-MS/MS (Mascot)

ApoA-I (from UniProt P02647)
binding: binds

These are yes or no findings as the source states them, for the method shown. In cells and extracts the contact can be indirect. Here binding means that the protein was enriched with, or labelled near, the bait; the list need not be complete.
